Earlier results as cited in US9867801B2, “Amorphous solid dispersion comprising taxane, tablet comprising the same, and method for preparing the same” (HANMI PHARM. CO., LTD., priority 2014, dated 2018).
In brackets after ≈: the same amount, converted by molar mass.

- water solubility: ~10 µg/mL (≈ 11.7 µM)
SMILES: CC(=O)O[C@H]1C(=O)[C@@]2(C)[C@H]([C@H](OC(=O)c3ccccc3)[C@]3(O)C[C@H](OC(=O)[C@H](O)[C@@H](NC(=O)c4ccccc4)c4ccccc4)C(C)=C1C3(C)C)[C@]1(OC(C)=O)CO[C@@H]1C[C@@H]2O [paclitaxel]
